The list shows a part of the results.
Assays:
Test in all cases: log2 fold change, soluble protein after heating vs DMSO (PISA); higher = thermal stabilisation; K562 lysate, 10 uM; active = over 0.2 and 3.5 SD of the protein, either way, in both replicates (recomputed)
[1] = compound: C=CC(=O)N1CCC[C@@H](n2nc(-c3ccc(Oc4ccccc4)cc3)c3c(N)ncnc32)C1 [ibrutinib]
Outline: (§1)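 Dounce homogenisation of K562 pellets in PBS pH 7.4 with 1 mM MgCl2 produced a crude extract, used at 1 mg/mL protein. Exposure to 10 μM compound lasted 30 min, and aliquots were then heated for 3 min across 48°C-58°C, pooled and brought to 0.5% NP-40 at 4°C. The supernatant after 21,000xg for 90 min was quantified by TMTpro 16plex LC-MS/MS with channel sums equalised. Duplicate values are given as log-two fold change in thermal stability relative to solvent controls.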

Sequences of proteins named here, by UniProt entry; tags and fusion partners are left off. A change or cut given only in a name is not applied to a line headed by its entry.
UniProt Q9NYP9: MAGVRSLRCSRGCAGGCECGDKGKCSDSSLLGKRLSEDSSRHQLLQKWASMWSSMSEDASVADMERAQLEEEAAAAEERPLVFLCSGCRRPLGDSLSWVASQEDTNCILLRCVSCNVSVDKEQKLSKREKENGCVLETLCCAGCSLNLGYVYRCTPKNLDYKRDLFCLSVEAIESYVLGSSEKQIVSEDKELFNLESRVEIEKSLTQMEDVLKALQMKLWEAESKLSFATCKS
UniProt Q96BX8: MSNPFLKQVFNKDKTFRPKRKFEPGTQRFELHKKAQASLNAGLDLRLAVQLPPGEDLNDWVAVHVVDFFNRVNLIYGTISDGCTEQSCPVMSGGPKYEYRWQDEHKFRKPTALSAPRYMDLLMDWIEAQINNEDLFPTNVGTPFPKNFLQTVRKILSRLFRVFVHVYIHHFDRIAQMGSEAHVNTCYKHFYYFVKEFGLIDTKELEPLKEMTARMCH
UniProt Q8TDZ2: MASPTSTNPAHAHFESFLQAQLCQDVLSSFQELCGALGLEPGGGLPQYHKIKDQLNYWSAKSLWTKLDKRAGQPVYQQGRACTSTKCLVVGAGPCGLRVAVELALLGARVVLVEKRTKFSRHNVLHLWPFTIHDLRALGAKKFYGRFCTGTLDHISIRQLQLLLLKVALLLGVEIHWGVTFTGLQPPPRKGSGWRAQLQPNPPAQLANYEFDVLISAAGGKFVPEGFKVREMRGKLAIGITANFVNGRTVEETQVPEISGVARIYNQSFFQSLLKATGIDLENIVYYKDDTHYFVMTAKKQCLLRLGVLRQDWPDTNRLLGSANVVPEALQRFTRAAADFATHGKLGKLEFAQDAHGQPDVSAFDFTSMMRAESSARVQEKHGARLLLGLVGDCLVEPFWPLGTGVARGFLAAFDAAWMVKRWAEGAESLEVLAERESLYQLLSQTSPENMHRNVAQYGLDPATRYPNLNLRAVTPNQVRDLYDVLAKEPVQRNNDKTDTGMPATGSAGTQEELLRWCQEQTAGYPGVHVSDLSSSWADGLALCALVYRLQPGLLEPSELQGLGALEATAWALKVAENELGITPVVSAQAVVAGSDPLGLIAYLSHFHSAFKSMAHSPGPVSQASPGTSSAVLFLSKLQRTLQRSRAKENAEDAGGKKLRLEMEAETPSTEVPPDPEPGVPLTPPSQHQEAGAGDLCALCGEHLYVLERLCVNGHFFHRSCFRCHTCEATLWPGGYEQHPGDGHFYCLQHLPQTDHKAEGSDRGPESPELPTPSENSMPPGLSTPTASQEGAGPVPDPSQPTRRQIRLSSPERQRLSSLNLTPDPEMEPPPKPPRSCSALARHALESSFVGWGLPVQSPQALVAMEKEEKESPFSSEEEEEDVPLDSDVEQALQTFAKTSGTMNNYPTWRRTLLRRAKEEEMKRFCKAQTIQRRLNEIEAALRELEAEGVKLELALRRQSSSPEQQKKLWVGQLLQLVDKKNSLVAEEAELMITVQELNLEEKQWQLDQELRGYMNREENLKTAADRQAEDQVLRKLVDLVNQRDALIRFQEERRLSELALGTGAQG
UniProt Q99735: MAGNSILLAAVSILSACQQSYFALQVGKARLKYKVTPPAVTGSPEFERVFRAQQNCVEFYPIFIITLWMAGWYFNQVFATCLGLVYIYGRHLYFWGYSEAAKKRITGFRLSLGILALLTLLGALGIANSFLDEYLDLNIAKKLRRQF
UniProt Q9UL63, whole entry, looked up: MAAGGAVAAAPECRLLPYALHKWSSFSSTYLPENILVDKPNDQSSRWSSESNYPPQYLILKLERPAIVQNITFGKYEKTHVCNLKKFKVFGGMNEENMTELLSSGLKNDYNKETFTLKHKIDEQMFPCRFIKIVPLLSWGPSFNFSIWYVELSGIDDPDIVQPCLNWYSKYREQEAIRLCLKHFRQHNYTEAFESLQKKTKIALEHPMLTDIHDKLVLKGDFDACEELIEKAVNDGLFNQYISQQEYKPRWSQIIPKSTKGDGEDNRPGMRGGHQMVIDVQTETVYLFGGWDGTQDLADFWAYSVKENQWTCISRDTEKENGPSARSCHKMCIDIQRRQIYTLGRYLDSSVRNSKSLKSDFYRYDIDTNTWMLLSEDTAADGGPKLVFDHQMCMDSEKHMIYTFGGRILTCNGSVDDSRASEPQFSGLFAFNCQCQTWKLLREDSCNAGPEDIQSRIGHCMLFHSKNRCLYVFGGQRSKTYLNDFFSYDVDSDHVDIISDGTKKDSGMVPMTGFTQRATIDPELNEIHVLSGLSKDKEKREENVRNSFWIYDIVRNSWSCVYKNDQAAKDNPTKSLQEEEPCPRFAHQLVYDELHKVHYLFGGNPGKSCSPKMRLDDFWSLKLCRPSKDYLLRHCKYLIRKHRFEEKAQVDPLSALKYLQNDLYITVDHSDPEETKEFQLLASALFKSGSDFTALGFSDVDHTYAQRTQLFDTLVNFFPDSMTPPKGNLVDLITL
UniProt Q9BUB5: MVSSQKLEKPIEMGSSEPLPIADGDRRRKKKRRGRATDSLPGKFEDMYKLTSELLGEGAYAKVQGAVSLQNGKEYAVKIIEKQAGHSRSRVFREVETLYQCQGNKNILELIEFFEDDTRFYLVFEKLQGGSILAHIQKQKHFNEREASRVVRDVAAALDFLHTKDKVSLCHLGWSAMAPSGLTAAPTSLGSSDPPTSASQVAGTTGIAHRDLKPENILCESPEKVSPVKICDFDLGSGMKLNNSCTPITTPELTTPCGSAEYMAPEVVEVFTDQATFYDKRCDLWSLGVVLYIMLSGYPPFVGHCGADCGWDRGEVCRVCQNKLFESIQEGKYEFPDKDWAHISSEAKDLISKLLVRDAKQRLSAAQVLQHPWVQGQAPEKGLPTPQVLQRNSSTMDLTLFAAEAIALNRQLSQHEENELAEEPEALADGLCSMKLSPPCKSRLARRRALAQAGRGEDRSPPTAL
UniProt Q09328: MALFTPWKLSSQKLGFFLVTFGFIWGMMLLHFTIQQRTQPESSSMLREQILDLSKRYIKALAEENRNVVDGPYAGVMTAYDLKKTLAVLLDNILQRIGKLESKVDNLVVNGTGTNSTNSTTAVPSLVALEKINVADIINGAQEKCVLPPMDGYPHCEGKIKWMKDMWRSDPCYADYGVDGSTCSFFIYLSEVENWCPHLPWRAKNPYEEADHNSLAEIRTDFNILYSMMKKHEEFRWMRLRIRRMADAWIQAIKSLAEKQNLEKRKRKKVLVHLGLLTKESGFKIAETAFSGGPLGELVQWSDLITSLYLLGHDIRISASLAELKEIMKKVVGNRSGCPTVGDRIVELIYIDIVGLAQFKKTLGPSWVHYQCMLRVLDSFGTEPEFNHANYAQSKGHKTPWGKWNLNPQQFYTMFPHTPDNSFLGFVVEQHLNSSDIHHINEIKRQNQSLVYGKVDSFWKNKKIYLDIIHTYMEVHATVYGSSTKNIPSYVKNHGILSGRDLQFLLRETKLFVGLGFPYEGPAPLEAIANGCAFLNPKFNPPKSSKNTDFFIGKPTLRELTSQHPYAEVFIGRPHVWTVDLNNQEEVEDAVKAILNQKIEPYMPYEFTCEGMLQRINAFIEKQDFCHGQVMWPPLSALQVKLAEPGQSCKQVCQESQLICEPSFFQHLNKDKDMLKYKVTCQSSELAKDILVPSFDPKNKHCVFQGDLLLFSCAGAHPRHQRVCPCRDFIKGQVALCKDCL
UniProt P10620: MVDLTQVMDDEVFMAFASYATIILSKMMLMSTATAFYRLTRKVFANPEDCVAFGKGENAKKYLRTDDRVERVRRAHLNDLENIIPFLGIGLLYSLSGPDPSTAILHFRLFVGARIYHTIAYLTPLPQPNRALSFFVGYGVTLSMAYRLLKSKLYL
UniProt Q9HC36: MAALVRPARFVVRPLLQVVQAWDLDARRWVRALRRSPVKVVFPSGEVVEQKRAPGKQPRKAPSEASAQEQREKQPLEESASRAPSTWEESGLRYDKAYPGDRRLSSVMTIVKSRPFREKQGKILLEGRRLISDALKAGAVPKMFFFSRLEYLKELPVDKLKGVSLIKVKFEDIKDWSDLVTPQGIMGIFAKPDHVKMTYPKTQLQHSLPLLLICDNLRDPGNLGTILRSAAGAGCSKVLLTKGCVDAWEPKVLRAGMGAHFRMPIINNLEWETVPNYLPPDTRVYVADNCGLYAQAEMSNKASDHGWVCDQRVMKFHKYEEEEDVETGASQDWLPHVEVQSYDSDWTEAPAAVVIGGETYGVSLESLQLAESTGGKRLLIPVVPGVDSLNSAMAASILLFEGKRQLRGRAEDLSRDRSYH
UniProt Q8N3F8: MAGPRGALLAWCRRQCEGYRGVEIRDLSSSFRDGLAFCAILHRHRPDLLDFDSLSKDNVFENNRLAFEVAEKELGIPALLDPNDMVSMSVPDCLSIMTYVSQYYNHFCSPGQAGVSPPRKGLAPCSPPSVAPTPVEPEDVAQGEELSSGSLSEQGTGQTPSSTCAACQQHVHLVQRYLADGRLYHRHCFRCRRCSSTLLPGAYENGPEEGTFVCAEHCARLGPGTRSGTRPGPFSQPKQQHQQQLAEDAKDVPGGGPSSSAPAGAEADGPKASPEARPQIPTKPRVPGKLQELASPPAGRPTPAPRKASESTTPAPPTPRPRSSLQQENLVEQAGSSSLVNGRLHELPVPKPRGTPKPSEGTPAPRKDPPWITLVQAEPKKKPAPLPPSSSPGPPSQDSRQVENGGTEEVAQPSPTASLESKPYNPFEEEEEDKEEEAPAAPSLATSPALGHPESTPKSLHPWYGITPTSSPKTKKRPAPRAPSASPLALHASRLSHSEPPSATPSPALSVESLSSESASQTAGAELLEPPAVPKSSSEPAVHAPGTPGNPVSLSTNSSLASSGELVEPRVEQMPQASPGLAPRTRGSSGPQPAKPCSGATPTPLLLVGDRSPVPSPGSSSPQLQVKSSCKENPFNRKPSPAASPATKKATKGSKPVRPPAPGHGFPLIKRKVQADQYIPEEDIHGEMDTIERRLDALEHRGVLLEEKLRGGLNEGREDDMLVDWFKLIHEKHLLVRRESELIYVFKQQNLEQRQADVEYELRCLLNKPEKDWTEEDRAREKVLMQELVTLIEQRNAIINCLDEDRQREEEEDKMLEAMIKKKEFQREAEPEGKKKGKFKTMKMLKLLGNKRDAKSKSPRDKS
UniProt Q86TA1: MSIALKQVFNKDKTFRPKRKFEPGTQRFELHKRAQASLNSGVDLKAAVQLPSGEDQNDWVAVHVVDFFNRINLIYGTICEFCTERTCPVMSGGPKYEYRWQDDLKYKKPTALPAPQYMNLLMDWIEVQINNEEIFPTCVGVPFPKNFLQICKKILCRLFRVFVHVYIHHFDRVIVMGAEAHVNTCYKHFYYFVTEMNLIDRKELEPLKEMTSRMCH
UniProt Q8N4C8: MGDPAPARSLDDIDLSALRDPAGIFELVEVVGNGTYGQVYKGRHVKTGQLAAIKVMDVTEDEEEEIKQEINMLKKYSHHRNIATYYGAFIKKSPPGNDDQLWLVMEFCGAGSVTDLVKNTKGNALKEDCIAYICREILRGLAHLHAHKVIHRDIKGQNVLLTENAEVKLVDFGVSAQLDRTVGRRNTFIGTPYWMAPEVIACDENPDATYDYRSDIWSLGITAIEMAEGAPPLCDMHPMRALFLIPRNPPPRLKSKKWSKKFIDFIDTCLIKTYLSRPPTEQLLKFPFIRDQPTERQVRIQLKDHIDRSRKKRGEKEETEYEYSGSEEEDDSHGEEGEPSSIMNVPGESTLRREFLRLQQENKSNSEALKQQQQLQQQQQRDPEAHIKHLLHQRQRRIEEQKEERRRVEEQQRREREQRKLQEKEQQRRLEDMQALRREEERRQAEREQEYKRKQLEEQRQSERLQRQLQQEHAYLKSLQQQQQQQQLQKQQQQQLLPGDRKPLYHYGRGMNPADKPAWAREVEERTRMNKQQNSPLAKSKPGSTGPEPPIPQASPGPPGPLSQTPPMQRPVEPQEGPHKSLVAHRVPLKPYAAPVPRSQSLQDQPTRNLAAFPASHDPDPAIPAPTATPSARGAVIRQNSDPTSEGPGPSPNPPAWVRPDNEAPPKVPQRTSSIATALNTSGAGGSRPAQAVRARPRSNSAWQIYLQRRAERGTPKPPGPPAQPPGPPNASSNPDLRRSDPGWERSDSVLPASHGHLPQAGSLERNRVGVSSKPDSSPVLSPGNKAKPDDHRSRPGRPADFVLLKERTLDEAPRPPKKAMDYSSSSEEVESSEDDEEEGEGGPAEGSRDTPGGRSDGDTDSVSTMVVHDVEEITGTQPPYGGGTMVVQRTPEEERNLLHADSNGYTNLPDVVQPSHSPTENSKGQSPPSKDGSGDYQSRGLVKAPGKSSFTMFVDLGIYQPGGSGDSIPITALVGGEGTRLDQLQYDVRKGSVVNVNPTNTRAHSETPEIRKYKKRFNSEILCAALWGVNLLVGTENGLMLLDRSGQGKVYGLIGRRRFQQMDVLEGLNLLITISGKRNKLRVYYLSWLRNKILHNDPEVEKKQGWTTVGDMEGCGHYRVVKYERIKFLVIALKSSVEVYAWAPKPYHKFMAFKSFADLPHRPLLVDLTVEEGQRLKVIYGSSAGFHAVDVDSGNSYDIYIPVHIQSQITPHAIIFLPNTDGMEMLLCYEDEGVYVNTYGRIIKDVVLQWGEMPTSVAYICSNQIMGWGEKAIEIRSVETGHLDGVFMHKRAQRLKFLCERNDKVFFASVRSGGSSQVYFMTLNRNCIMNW

[2] = compound: CC(=O)c1cnc2ccc(-c3cc(Cl)c(O)c(Cl)c3)nc2c1N[C@H]1CC[C@H](CN(C)C)CC1
Outline: as §1

[3] = compound: CC(C)(C)Cn1c(N)nc2ccc(-c3[nH]c(C(C)(C)C)nc3-c3ccc(F)cc3)nc21 [ralimetinib]
Outline: as §1

[4] = compound: CC(C)(O)CC(=O)NCCn1ccc2ncnc(Nc3ccc(Oc4cccc(C(F)(F)F)c4)c(Cl)c3)c21
Outline: as §1

[5] = compound: CC(C)C1=C2N=C(C=C(N2N=C1)NCC3=CC=CC=C3)NCCCCCCN
Outline: as §1

[6] = compound: CC1=C(C(CC(=O)N1)C2=CC=C(C=C2)C(F)(F)F)C(=O)NC3=C(C=C4C(=C3)C=NN4)F
Outline: as §1

[7] = compound: CC1=C(C2=C(C=C1)C(=O)C3=CC=CC=C3N2CCCN)C
Outline: as §1

[8] = compound: CC1=C(C=C(C=C1)NC(=O)C2=CC(=CC=C2)C(C)(C)C#N)NC3=CC4=C(C=C3)N=CN(C4=O)C
Outline: as §1

[9] = compound: CC1=C(C=C(C=C1)NC(=O)C2=CC(=CC=C2)N(C)C)NC(=O)C3=CC=C(C=C3)O
Outline: as §1

[10] = compound: CC1=CC=C(C=C1)SC2=C3C=C(SC3=CN=C2)C(=O)N
Outline: as §1

[11] = compound: CCCS(=O)(=O)Nc1ccc(F)c(C(=O)c2c[nH]c3ncc(-c4ccc(Cl)cc4)cc23)c1F [vemurafenib]
Outline: as §1

[12] = compound: CCCS(=O)(=O)Nc1ccc(F)c(C(=O)c2c[nH]c3ncc(Cl)cc23)c1F
Outline: as §1

[13] = compound: CCN(CCCOc1ccc2c(Nc3cc(CC(=O)Nc4cccc(F)c4)[nH]n3)ncnc2c1)CCOP(=O)(O)O [barasertib]
Outline: as §1

[14] = compound: CC[C@@H]1C(=O)N(C)c2cnc(Nc3ccc(C(=O)NC4CCN(C)CC4)cc3OC)nc2N1C1CCCC1
Outline: as §1

[15] = compound: CC[C@@H]1C(=O)N(C)c2cnc(Nc3ccc(C(=O)N[C@H]4CC[C@H](N5CCN(CC6CC6)CC5)CC4)cc3OC)nc2N1C(C)C [volasertib]
Outline: as §1

[16] = compound: CCn1c(C(=O)N(C2CC2)C2CC2)cc2c3c(ncn3C)c(Nc3cc(C)n(C)n3)nc21
Outline: as §1

[17] = compound: CCn1cc(-c2ccnc3[nH]c(-c4cccc(CN(C)C)c4)cc23)c(-c2ccc(NC(=O)N(C)C)cc2)n1
Outline: as §1

[18] = compound: CN1CCC(CNc2ccc3ncc(-c4cccc(OC(F)(F)F)c4)n3n2)CC1
Outline: as §1

[19] = compound: CN1CCN(CCOc2cc(OC3CCOCC3)c3c(Nc4c(Cl)ccc5c4OCO5)ncnc3c2)CC1 [saracatinib]
Outline: as §1

[20] = compound: CN1CCN(c2nc(C3=C(c4c[nH]c5ccccc45)C(=O)NC3=O)c3ccccc3n2)CC1 [sotrastaurin]
Outline: as §1

Target | log2 fold change [1] | log2 fold change [2] | log2 fold change [3] | log2 fold change [4] | log2 fold change [5] | log2 fold change [6] | log2 fold change [7] | log2 fold change [8] | log2 fold change [9] | log2 fold change [10] | log2 fold change [11] | log2 fold change [12] | log2 fold change [13] | log2 fold change [14] | log2 fold change [15] | log2 fold change [16] | log2 fold change [17] | log2 fold change [18] | log2 fold change [19] | log2 fold change [20]
MIS18A (UniProt Q9NYP9) | inactive: 0.018 | inactive: 0.002 | inactive: 0.003 | inactive: 0.019 | inactive: -0.012 | inactive: 0.003 | inactive: 0 | inactive: 0.008 | inactive: 0.02 | inactive: -0.031 | inactive: -0.035 | inactive: 0.006 | inactive: -0.021 | inactive: -0.017 | inactive: 0.007 | inactive: 0.021 | inactive: 0.223 | inactive: -0.14 | inactive: -0.025 | inactive: 0.033
MPP1 (UniProt Q00013) | inactive: 0.035 | inactive: 0.011 | inactive: -0.01 | inactive: -0.002 | inactive: 0.02 | inactive: -0.019 | inactive: 0.018 | inactive: 0.022 | inactive: 0.012 | inactive: -0.004 | inactive: 0.014 | inactive: -0.005 | inactive: -0.014 | inactive: 0.001 | inactive: -0.029 | inactive: -0.011 | inactive: -0.008 | inactive: -0.034 | inactive: -0.001 | inactive: -0.007
MOB3A (UniProt Q96BX8) | inactive: 0.044 | inactive: 0.031 | inactive: 0.018 | inactive: -0.01 | inactive: 0.006 | inactive: 0.045 | inactive: 0.018 | inactive: -0.026 | inactive: 0.001 | inactive: 0.006 | inactive: 0.097 | inactive: 0.043 | inactive: -0.01 | inactive: 0.026 | inactive: 0.013 | inactive: 0.02 | inactive: -0.139 | inactive: -0.072 | inactive: -0.044 | inactive: 0
MICAL1 isoform 4 (UniProt Q8TDZ2) | inactive: 0.026 | inactive: -0.026 | inactive: -0.002 | inactive: 0.023 | inactive: 0.036 | inactive: -0.034 | inactive: 0.028 | inactive: 0.008 | inactive: -0.001 | inactive: -0.044 | inactive: -0.013 | inactive: 0.002 | inactive: 0.018 | inactive: 0.028 | inactive: -0.011 | inactive: -0.004 | inactive: 0.026 | inactive: -0.03 | inactive: 0.065 | inactive: -0.047
MIEF1 (UniProt L0R8F8) | inactive: 0.078 | inactive: -0.002 | inactive: -0.035 | inactive: -0.061 | inactive: 0.003 | inactive: 0.017 | inactive: -0.022 | inactive: -0.003 | inactive: 0.025 | inactive: -0.017 | inactive: -0.039 | inactive: -0.013 | inactive: 0.013 | inactive: 0.009 | inactive: -0.075 | inactive: 0.008 | inactive: 0.1 | inactive: 0.021 | inactive: -0.006 | inactive: -0.112
MGST2 (UniProt Q99735) | inactive: 0.02 | inactive: 0.006 | inactive: -0.036 | inactive: -0.074 | inactive: -0.054 | inactive: -0.009 | inactive: -0.008 | inactive: 0.052 | inactive: 0.088 | inactive: 0.016 | inactive: 0.066 | inactive: -0.068 | inactive: -0.02 | inactive: 0.111 | inactive: 0.017 | inactive: -0.085 | inactive: 0.08 | inactive: 0.071 | inactive: 0.005 | inactive: 0.017
MKLN1 (UniProt Q9UL63) | inactive: -0.016 | inactive: -0.012 | inactive: 0.026 | inactive: -0.017 | inactive: -0.012 | inactive: -0.004 | inactive: -0.021 | inactive: 0 | inactive: 0.006 | inactive: -0.008 | inactive: 0.004 | inactive: 0.001 | inactive: -0.028 | inactive: 0 | inactive: 0.004 | inactive: 0.009 | inactive: 0.049 | inactive: 0.029 | inactive: 0.023 | inactive: 0.009
MKNK1 (UniProt Q9BUB5) | inactive: 0.041 | inactive: 0.06 | inactive: 0.02 | inactive: -0.019 | inactive: 0.017 | inactive: -0.018 | inactive: -0.03 | inactive: 0.008 | inactive: -0.014 | inactive: -0.017 | inactive: 0.044 | inactive: 0.006 | inactive: -0.018 | inactive: 0.036 | inactive: -0.039 | inactive: -0.044 | inactive: -0.018 | inactive: 0.039 | inactive: 0.023 | inactive: -0.044
MRPL14 (UniProt Q6P1L8) | inactive: -0.001 | inactive: 0.05 | inactive: -0.027 | inactive: -0.021 | inactive: -0.038 | inactive: 0.037 | inactive: -0.057 | inactive: -0.018 | inactive: -0.004 | inactive: 0.043 | inactive: 0.012 | inactive: -0.033 | inactive: 0.071 | inactive: 0.032 | inactive: 0.042 | inactive: 0.078 | inactive: 0.074 | inactive: 0.029 | inactive: -0.12 | inactive: -0.014
MGAT5 (UniProt Q09328) | inactive: 0.038 | inactive: 0.014 | inactive: 0.001 | inactive: 0.039 | inactive: -0.045 | inactive: -0.084 | inactive: 0.005 | inactive: -0.002 | inactive: -0.004 | inactive: 0.014 | inactive: -0.254 | inactive: -0.07 | inactive: 0.062 | inactive: -0.08 | inactive: -0.065 | inactive: 0.021 | inactive: 0.094 | inactive: -0.138 | inactive: -0.036 | inactive: 0.002
MRPL19 (UniProt P49406) | inactive: 0.067 | inactive: 0.027 | inactive: 0.034 | inactive: -0.057 | inactive: 0.029 | inactive: -0.021 | inactive: 0.01 | inactive: -0.013 | inactive: 0.023 | inactive: -0.002 | inactive: 0.026 | inactive: 0.029 | inactive: 0.001 | inactive: -0.139 | inactive: -0.056 | inactive: 0 | inactive: 0.026 | inactive: -0.053 | inactive: 0.016 | inactive: -0.016
MGST1 (UniProt P10620) | inactive: 0.052 | inactive: 0.039 | inactive: 0.054 | inactive: -0.047 | inactive: -0.002 | inactive: 0.002 | inactive: -0.078 | inactive: -0.01 | inactive: 0.014 | inactive: 0.05 | inactive: 0.015 | inactive: 0.018 | inactive: 0.027 | inactive: 0.097 | inactive: 0.07 | inactive: -0.036 | active: 0.279 | inactive: -0.069 | inactive: 0.068 | inactive: -0.013
MRM3 (UniProt Q9HC36) | inactive: 0.009 | inactive: -0.046 | inactive: 0 | inactive: 0.009 | inactive: -0.035 | inactive: 0.035 | inactive: -0.004 | inactive: -0.016 | inactive: 0 | inactive: -0.015 | inactive: -0.038 | inactive: -0.05 | inactive: 0 | inactive: 0.016 | inactive: -0.013 | inactive: -0.039 | inactive: 0.093 | inactive: -0.076 | inactive: -0.031 | inactive: -0.05
MICALL1 (UniProt Q8N3F8) | inactive: 0.011 | inactive: -0.02 | inactive: 0.012 | inactive: -0.053 | inactive: 0.009 | inactive: -0.012 | inactive: -0.011 | inactive: 0.024 | inactive: 0.038 | inactive: -0.01 | inactive: 0.003 | inactive: 0.041 | inactive: 0.007 | inactive: -0.004 | inactive: -0.006 | inactive: 0.007 | inactive: 0.026 | inactive: 0.022 | inactive: 0.021 | inactive: 0.003
MOB3B (UniProt Q86TA1) | inactive: 0 | inactive: 0.023 | inactive: -0.011 | inactive: -0.03 | inactive: 0.023 | inactive: -0.107 | inactive: -0.038 | inactive: 0.009 | inactive: -0.001 | inactive: -0.024 | inactive: 0.016 | inactive: 0.004 | inactive: 0.054 | inactive: 0.098 | inactive: -0.015 | inactive: -0.071 | inactive: 0.161 | inactive: -0.082 | inactive: 0.007 | inactive: 0.006
MINK1 (UniProt Q8N4C8) | inactive: -0.003 | inactive: 0.013 | inactive: 0.042 | inactive: -0.051 | inactive: 0.119 | inactive: -0.144 | inactive: -0.03 | inactive: -0.008 | inactive: 0.013 | inactive: 0.021 | inactive: -0.096 | inactive: -0.107 | inactive: -0.017 | inactive: -0.012 | inactive: 0.022 | inactive: 0.076 | inactive: -0.033 | inactive: -0.09 | inactive: 0.007 | inactive: 0.079

Part of the list above, reduced to log2 fold change [14], log2 fold change [13] and log2 fold change [15].
Target	log2 fold change [14]	log2 fold change [13]	log2 fold change [15]
MRM3 (UniProt Q9HC36)	inactive: 0.016	inactive: 0	inactive: -0.013
MICALL1 (UniProt Q8N3F8)	inactive: -0.004	inactive: 0.007	inactive: -0.006

Source: the supplement of paper PMC10849652
